Values joined by “and” are separate entries in the source; they are usually repeats but may differ in a detail not shown here. Identical values can stand only once. Further values from the same series stand in other lists. Values belong to the compound of their own block, whether it stands above or below them.
Assays:
MAT2A = assay: BRET probe sensitivity to MAT2A inhibition (Compound A) in live HEK293 cells expressing NLuc-PRMT5; type: cell-based; details: for Normalized BRET probe signal: 37 °C; for normalized BRET signal (Figure S3D): replicates
Description: To measure BRET probe sensitivity to both MAT2A inhibition and exogenous MTA in live cells, HEK293 cells were pre-treated with 30 nM CBH-002 and incubated at 37 °C and 5% CO2 for 2 h. For MAT2A inhibition, a 20 µM, 3-fold, 11 pt titration series of Compound A (Selleckchem) was added to wells. Cells were incubated either at 37 °C (Fig. 3D) or room temperature (Fig. S3D). Data were normalized using Eq. (2), where BRETMIN = instrument background (no CBH-002), and BRETMAX = 2 h vehicle treatment, and fit curves were generated using Eq. (1). For MTA sensitivity cells were treated with a 1 mM, 11 pt, 2-fold series of MTA (Sigma) and cells were incubated at room temperature for 2 h, reading in 15 min intervals. Data were normalized using Eq. (2), where BRETMIN = instrument background (no CBH-002), and BRETMAX = 2 h + vehicle treatment. Data were fit with Eq. (1).

Amino acid sequences for entries named in this document (tags omitted).
UniProt O14744, whole entry: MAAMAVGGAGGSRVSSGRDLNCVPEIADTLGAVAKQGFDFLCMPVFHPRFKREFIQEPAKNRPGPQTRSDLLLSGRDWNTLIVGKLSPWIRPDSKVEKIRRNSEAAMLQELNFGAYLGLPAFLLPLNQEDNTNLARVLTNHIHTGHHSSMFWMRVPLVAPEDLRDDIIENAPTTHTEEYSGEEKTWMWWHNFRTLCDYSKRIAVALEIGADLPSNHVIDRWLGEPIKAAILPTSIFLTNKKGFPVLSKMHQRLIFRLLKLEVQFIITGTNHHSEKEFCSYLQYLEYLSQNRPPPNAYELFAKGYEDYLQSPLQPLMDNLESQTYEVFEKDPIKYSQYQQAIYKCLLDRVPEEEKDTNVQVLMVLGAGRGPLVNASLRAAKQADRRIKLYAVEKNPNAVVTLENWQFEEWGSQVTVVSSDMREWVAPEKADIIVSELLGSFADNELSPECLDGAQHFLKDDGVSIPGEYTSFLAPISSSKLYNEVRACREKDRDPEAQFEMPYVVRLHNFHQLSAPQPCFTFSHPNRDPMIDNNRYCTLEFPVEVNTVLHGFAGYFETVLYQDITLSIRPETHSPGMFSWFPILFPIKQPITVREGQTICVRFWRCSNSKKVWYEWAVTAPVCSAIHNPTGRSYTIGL

NL-PRMT5 with WDR77 = target: T1, NL-PRMT5 with WDR77 (Homo sapiens, UniProt O14744); assay: MRTX1719 kinetic washout (residence time) NanoBRET experiment in HEK293 cells; type: cell-based; details: 100uM MTA
T1 construct: host or cells: HEK293
Description: On the next day, cells were resuspended in a 15 mL falcon tube and adjusted to 2 × 10^5 cells/mL in assay medium (OptiMEM with 1% FBS). […] After incubation, cells were centrifuged at 300 × g for 5 min, medium was aspirated and cells were washed with pre-warmed assay medium, centrifuged again and adjusted to 2 × 10^5 cells/mL. For the full occupancy control, MTA and compound concentrations were maintained. 34 μL of cells were added per well in a seeded into 96-well non-binding surface-treated plates (Corning), followed by addition of 36 μL of Complete 2x Substrate (prepared by combining Nano-Glo Substrate and Extracellular NanoLuc Inhibitor in Opti-MEM, according to the manufacturer’s protocol (Promega)). Then, 2 μL of ETP CBH-002 at a final concentration of 30 nM were added before immediate readout at the PheraSTAR FSX for 6 h. Readout and analysis were conducted as described earlier.

SMILES: Nc1nc(=O)n(-c2ccccc2Cl)c2nc(C(F)(F)F)ccc12 [Compound A]
- Normalized BRET probe signal (MAT2A; Log([Compound A]) in uM 0.35, Time (h) 2): 81.29 and 84.17 and 82.16
- Normalized BRET probe signal (MAT2A; Log([Compound A]) in uM 0.35, Time (h) 3): 74.78 and 76.65 and 74.51
- Normalized BRET probe signal (MAT2A; Log([Compound A]) in uM 0.35, Time (h) 4): 62.26 and 62.98 and 64.07
- Normalized BRET probe signal (MAT2A; Log([Compound A]) in uM 0.35, Time (h) 5): 55.01 and 55.85 and 55.75
- Normalized BRET probe signal (MAT2A; Log([Compound A]) in uM 0.35, Time (h) 6): 53.89 and 53.33 and 54.16
- Normalized BRET probe signal (MAT2A; Log([Compound A]) in uM 0.82, Time (h) 3): 77.64 and 77.21 and 75.21
- Normalized BRET probe signal (MAT2A; Log([Compound A]) in uM 0.82, Time (h) 4): 63.28 and 65.60
- normalized BRET signal (Figure S3D) (MAT2A; Log([Compound A]) in uM -0.13, Time 0 min): 101.45 and 102.66
- normalized BRET signal (Figure S3D) (MAT2A; Log([Compound A]) in uM -0.13, Time 15 min): 101.09 and 100.96 and 101.38
- normalized BRET signal (Figure S3D) (MAT2A; Log([Compound A]) in uM -0.13, Time 30 min): 100.65 and 99.76
- normalized BRET signal (Figure S3D) (MAT2A; Log([Compound A]) in uM -0.13, Time 120 min): 95.66
- Normalized BRET probe signal (MAT2A; Log([Compound A]) in uM -0.13, Time (h) 2): 84.10 and 85.04 and 83.56
- Normalized BRET probe signal (MAT2A; Log([Compound A]) in uM -0.13, Time (h) 3): 76.50 and 76.23 and 75.85
- Normalized BRET probe signal (MAT2A; Log([Compound A]) in uM -0.13, Time (h) 4): 62.46 and 64.49 and 63.63
- Normalized BRET probe signal (MAT2A; Log([Compound A]) in uM -0.13, Time (h) 5): 55.18 and 55.73 and 57.18
- Normalized BRET probe signal (MAT2A; Log([Compound A]) in uM -0.13, Time (h) 6): 57.32 and 55.11 and 53.49
- normalized BRET signal (Figure S3D) (MAT2A; Log([Compound A]) in uM -0.61, Time 0 min): 105.72 and 103.08 and 103.32
- normalized BRET signal (Figure S3D) (MAT2A; Log([Compound A]) in uM -0.61, Time 15 min): 103.47 and 102.14 and 101.84
- normalized BRET signal (Figure S3D) (MAT2A; Log([Compound A]) in uM -0.61, Time 30 min): 99.34 and 103.96 and 100.84
- normalized BRET signal (Figure S3D) (MAT2A; Log([Compound A]) in uM -0.61, Time 45 min): 103.18 and 100.13 and 98.02
- normalized BRET signal (Figure S3D) (MAT2A; Log([Compound A]) in uM -0.61, Time 60 min): 102.16 and 99.31 and 97.79
- normalized BRET signal (Figure S3D) (MAT2A; Log([Compound A]) in uM -0.61, Time 75 min): 101.39 and 98.57 and 96.53
- normalized BRET signal (Figure S3D) (MAT2A; Log([Compound A]) in uM -0.61, Time 90 min): 101.80 and 98.52 and 96.46
- normalized BRET signal (Figure S3D) (MAT2A; Log([Compound A]) in uM -0.61, Time 120 min): 97.93 and 98.15 and 95.84
- Normalized BRET probe signal (MAT2A; Log([Compound A]) in uM -0.61, Time (h) 2): 83.51 and 85.74 and 83.64
- Normalized BRET probe signal (MAT2A; Log([Compound A]) in uM -0.61, Time (h) 3): 75.66 and 75.95 and 75.59
- Normalized BRET probe signal (MAT2A; Log([Compound A]) in uM -0.61, Time (h) 4): 61.74 and 61.16 and 63.36
- Normalized BRET probe signal (MAT2A; Log([Compound A]) in uM -0.61, Time (h) 5): 52.63 and 55.79 and 55.84
- Normalized BRET probe signal (MAT2A; Log([Compound A]) in uM -0.61, Time (h) 6): 55.45 and 54.15 and 54.83
- normalized BRET signal (Figure S3D) (MAT2A; Log([Compound A]) in uM -1.08, Time 0 min): 104.70 and 103.08 and 104.82
- normalized BRET signal (Figure S3D) (MAT2A; Log([Compound A]) in uM -1.08, Time 15 min): 102.51 and 102.67 and 102.75
- normalized BRET signal (Figure S3D) (MAT2A; Log([Compound A]) in uM -1.08, Time 30 min): 100.63 and 103.31 and 101.20
- normalized BRET signal (Figure S3D) (MAT2A; Log([Compound A]) in uM -1.08, Time 45 min): 101.42 and 100.39 and 99.23
- normalized BRET signal (Figure S3D) (MAT2A; Log([Compound A]) in uM -1.08, Time 60 min): 100.31 and 99.86 and 98.91
- normalized BRET signal (Figure S3D) (MAT2A; Log([Compound A]) in uM -1.08, Time 75 min): 100.47 and 99.14 and 97.88
- normalized BRET signal (Figure S3D) (MAT2A; Log([Compound A]) in uM -1.08, Time 90 min): 101.18 and 98.37 and 97.60
- normalized BRET signal (Figure S3D) (MAT2A; Log([Compound A]) in uM -1.08, Time 120 min): 99.30 and 97.69 and 96.02
- Normalized BRET probe signal (MAT2A; Log([Compound A]) in uM -1.08, Time (h) 2): 84.67 and 86.82 and 83.90
- Normalized BRET probe signal (MAT2A; Log([Compound A]) in uM -1.08, Time (h) 3): 77.56 and 76.20 and 75.54
- Normalized BRET probe signal (MAT2A; Log([Compound A]) in uM -1.08, Time (h) 4): 61.34 and 62.06 and 62.68
- Normalized BRET probe signal (MAT2A; Log([Compound A]) in uM -1.08, Time (h) 5): 54.74 and 56.09 and 56.58
- Normalized BRET probe signal (MAT2A; Log([Compound A]) in uM -1.08, Time (h) 6): 56.26 and 56.82 and 55.72

- BRET, Figure S5I (NL-PRMT5 with WDR77; time 72 min): 1.294 and 1.339 and 1.354 and 1.349
SMILES: CSC[C@H]1O[C@@H](n2cnc3c(N)ncnc32)[C@H](O)[C@@H]1O [MTA, methylthioadenosine]
- BRET, Figure S5I (NL-PRMT5 with WDR77; time 78 min): 1.386 and 1.366 and 1.432 and 1.342 and 1.317 and 1.352 and 1.361 and 1.362
- BRET, Figure S5I (NL-PRMT5 with WDR77; time 84 min): 1.398 and 1.406 and 1.438 and 1.3737 and 1.326 and 1.358 and 1.387 and 1.39
- BRET, Figure S5I (NL-PRMT5 with WDR77; time 90 min): 1.403 and 1.384 and 1.461 and 1.374 and 1.334 and 1.369 and 1.409 and 1.416
- BRET, Figure S5I (NL-PRMT5 with WDR77; time 96 min): 1.401 (2×) and 1.489 and 1.363 and 1.337 and 1.381 and 1.402 and 1.419
- BRET, Figure S5I (NL-PRMT5 with WDR77; time 120 min): 1.4347 and 1.384 and 1.485 and 1.3745 and 1.37 and 1.3594 and 1.416 and 1.404
- BRET, Figure S5I (NL-PRMT5 with WDR77; time 138 min): 1.435 and 1.4 and 1.464 and 1.387 and 1.367 and 1.363 and 1.415 and 1.419
- BRET, Figure S5I (NL-PRMT5 with WDR77; time 150 min): 1.43 and 1.41 and 1.422 and 1.377 and 1.389 and 1.393 and 1.382 and 1.425
- BRET, Figure S5I (NL-PRMT5 with WDR77; time 168 min): 1.45 and 1.429 and 1.495 and 1.408 and 1.43 and 1.4242 and 1.397 and 1.441
- BRET, Figure S5I (NL-PRMT5 with WDR77; time 180 min): 1.466 and 1.4423 and 1.452 and 1.426 and 1.442 and 1.43 and 1.429 and 1.413
- BRET, Figure S5I (NL-PRMT5 with WDR77; time 210 min): 1.464 and 1.497 and 1.494 and 1.415 and 1.481 and 1.441 and 1.4645 and 1.459
- BRET, Figure S5I (NL-PRMT5 with WDR77; time 240 min): 1.5 and 1.574 and 1.5876 and 1.495 and 1.491 and 1.427 and 1.469 and 1.483
- BRET, Figure S5I (NL-PRMT5 with WDR77; time 270 min): 1.65 and 1.5615 and 1.479 and 1.49 and 1.533 and 1.541 and 1.579 and 1.521
- BRET, Figure S5I (NL-PRMT5 with WDR77; time 300 min): 1.638 and 1.6944 and 1.634 and 1.624 and 1.619 and 1.633 and 1.599 and 1.541
- BRET, Figure S5I (NL-PRMT5 with WDR77; time 330 min): 1.755 and 1.642 and 1.651 and 1.669 and 1.659 and 1.722 and 1.59 and 1.744

From article PMC12675575, “A BRET biosensor for measuring uncompetitive engagement of PRMT5 complexes in cells” (Nature Communications, 2025)
